{"source": "PubChem BioAssay AID1508600", "about": "(Functional Genomics Laboratory (NCATS/FGL), 2020)", "note": "The campaign covered roughly 53,000 sequences. About 3,700 (7%) were called active.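 The calls were made as follows: active = gene knockdowns whose robust z-score for IL-1 alpha signal is at least 2 or at most -2, so actives lie on both sides; inactive = the rest.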 The list shows a part of the results."}
{"assay": "Components of the Cytosolic LPS Sensing Pathway: Gene Identification via Genome-wide siRNA Screen;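 also: robust z of the log signal after scaling to non-targeting control siRNA wells of the plate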", "details": "RAW264.7 macrophages, IL-1a HTRF, actives lie on both sides, screened at 100 nM (by protocol), cells primed 5 h with Pam3CSK4 first", "summary_of_the_method": "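IL-1a HTRF of supernatants after 24 hour LipidA transfection of Pam3CSK4-primed (5 hours) RAW264.7 cells, 48h post-siRNA transfection (100 nM). Scores: percent of plate negative-control median, then log-based robust z-score.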"}
{"sequence": "CGAUUAUCCAGAGUGGAGCTT against Ankrd28", "z-score": "inactive: 0.792"}
{"sequence": "GGACAUCUAUCAGUUUCUUTT against Tnfrsf21", "z-score": "inactive: 0.806"}
{"sequence": "GGAACUGCUGUGGAGAAAGTT against Smg5", "z-score": "inactive: -0.885"}
{"sequence": "GCUAGCGAUAACAAGAUUGTT against Hfm1", "z-score": "inactive: -0.676"}
{"sequence": "GGGAUUACCUCCAGACACATT against Ccdc88c", "z-score": "inactive: 0.0678"}
{"sequence": "GGUUCGAAAACUCAGCAAUTT against Drd3", "z-score": "inactive: 0.881"}
{"sequence": "GGAAGGUGAUGCACUAUUATT against B3galnt2", "z-score": "inactive: 0.828"}
{"sequence": "GGGUCUGGUGUUAUAUUUGTT against Slc26a10", "z-score": "inactive: 0.0373"}
{"sequence": "GGCAAAGCUGCUCUUUUCUTT against Dnttip1", "z-score": "inactive: -1.23"}
{"sequence": "GGGUUAGUCUGUUAGAUCATT against Snhg16", "z-score": "inactive: 0.0541"}
{"sequence": "GGGACAUGAGGAUUUGUCUTT against Six4", "z-score": "inactive: 0.359"}
{"sequence": "GUACUGAGCAAGAUGCUGGTT against Sox18", "z-score": "inactive: -1.74"}
{"sequence": "GGAUCAAGGCUGCUGUUCCTT against Pgk1", "z-score": "inactive: 1.98"}
{"sequence": "CCACCUGAUGAGUUUACCGTT against Lrriq4", "z-score": "inactive: 0.427"}
{"sequence": "GGUGGUGCCAAGAUGUUGUTT against Aste1", "z-score": "active: 2.26"}
{"sequence": "GGGAAGAGUUGGAUCGAUCTT against Shkbp1", "z-score": "inactive: -0.0675"}
{"sequence": "CCUGCUUCUCUACAACCAUTT against Olfr1209", "z-score": "inactive: -0.817"}
{"sequence": "GGCUAAAAUAAGCAAUCUGTT against Optc", "z-score": "inactive: -1.35"}
{"sequence": "GCCCGUCGGAUAUAAGAUUTT against Cd247", "z-score": "inactive: -0.351"}
{"sequence": "GCCUCAUCGUAUAUAAAAUTT against Atp5mpl", "z-score": "inactive: -1.64"}
{"sequence": "GCCUUUCGAACUUGGUUCGTT against Usp44", "z-score": "inactive: 0.0967"}
{"sequence": "GGUACUGGAAAGAAAUGAGTT against Exph5", "z-score": "inactive: 0.356"}
{"sequence": "GGAGAACAACAAAGACAAGTT against Hoxb8", "z-score": "active: 2.69"}
{"sequence": "GGGUCUUCACUUUGAACCUTT against Adk", "z-score": "inactive: 0.878"}
{"sequence": "GCAUCGAUAUCAGGACAUGTT against Deaf1", "z-score": "inactive: 1.07"}
{"sequence": "GGGUCCAGUCAAUCAGAAATT against Znhit2", "z-score": "inactive: -0.382"}
{"sequence": "CCCUUACGGGUUGACCUUGTT against Nop53", "z-score": "inactive: 0.822"}
{"sequence": "GGGAAGAAUGGACAAAUAATT against Tmem100", "z-score": "inactive: 1.13"}
{"sequence": "CGUACACCAUUCAAGGUACTT against Kif20a", "z-score": "inactive: -0.589"}
{"sequence": "GGUUCUUGUUUCAUUUUGCTT against Cdnf", "z-score": "inactive: 0.819"}
{"sequence": "GGUCCAAAAAUGGCUUGGCTT against Fabp9", "z-score": "inactive: 0.656"}
{"sequence": "CCUCAGAUGGAGGUUACUCTT against Inha", "z-score": "inactive: 0.394"}
{"sequence": "GGUAUCACCUUCGUUACUATT against Unk", "z-score": "inactive: -0.74"}
{"sequence": "GGGCCAACCCAGAAAAACATT against Plekha7", "z-score": "inactive: -0.515"}
{"sequence": "GGUCGGGAAGUGGUAAAACTT against Traf3ip1", "z-score": "inactive: 0.00227"}
{"sequence": "GGUUGAAAAAGAACAGUGCTT against Bnc1", "z-score": "inactive: 0.64"}
{"sequence": "GGAUUUCGACAAUAUGAAGTT against Chrnb2", "z-score": "inactive: -1.8"}
{"sequence": "GGAUGAACGGAGGAAAAUUTT against Sox13", "z-score": "inactive: -0.354"}
{"sequence": "GGACUAUAAAAUGUCAUGGTT against Etv2", "z-score": "inactive: 0.00467"}
{"sequence": "GGACAGUUUACUCCAGAUATT against Foxc1", "z-score": "active: 2.84"}
{"sequence": "GGAAGCAGAUGCUAUUUAUTT against Prpf6", "z-score": "inactive: -1.49"}
{"sequence": "GCUAUCGGGUAUGGUUGCUTT against Prrxl1", "z-score": "inactive: 0.153"}
{"sequence": "CCAUAUGAAGGCGCAUGGATT against Zfp516", "z-score": "inactive: -0.771"}
{"sequence": "GGUACUGAGUGUGUUUUGCTT against Olfr1364", "z-score": "inactive: -0.00522"}
{"sequence": "GCACUGUAUUCUUGAGCACTT against 1700020L24Rik", "z-score": "active: 2.06"}
{"sequence": "CCACAUGGAACCACUAACUTT against Wnt11", "z-score": "inactive: -0.357"}
{"sequence": "GGAUGUACCACCUUUCUGGTT against Klhl6", "z-score": "inactive: -1.28"}
{"sequence": "GGAUUUCAACAUCUAUGGCTT against Tpra1", "z-score": "inactive: -1.9"}
{"sequence": "GCUUGUCCUUUUUAGACAATT against Ipmk", "z-score": "inactive: -0.0846"}
{"sequence": "CCGCUUCAGAUCUUUCGAGTT against Dclk1", "z-score": "inactive: -1.44"}
{"sequence": "GGACUUUCACAGACCACUUTT against Rgma", "z-score": "inactive: 0.999"}
{"sequence": "GGAGUCAAGCUAGAAGUUUTT against Cr1l", "z-score": "inactive: -0.9"}
{"sequence": "GGCCAGCUGAGCUUAAAGATT against Ccna2", "z-score": "inactive: -0.954"}
{"sequence": "GCCCUCUCCAAACAUUGAATT against Neo1", "z-score": "inactive: 0.0936"}
{"sequence": "GGCCAUGGGUAUUAAUGACTT against Dhx8", "z-score": "inactive: -1.82"}
{"sequence": "GGUGAAGGUGCCUUCCAAATT against Il27ra", "z-score": "active: 2.91"}
{"sequence": "CCGUCAUACUCCGUGAUUCTT against Samd11", "z-score": "inactive: 0.193"}
{"sequence": "GCUACCUGUCUGGACAUUUTT against Gfra3", "z-score": "inactive: 0.421"}
{"sequence": "GGCUCGUUCCAACCCUUUATT against Dbx1", "z-score": "inactive: -0.56"}
{"sequence": "CGAAUUCAUACCAAGAAAGTT against Myo3a", "z-score": "inactive: 0.477"}
{"sequence": "GGAAGAAAUGGAAUUGAAGTT against Pcdhga6", "z-score": "inactive: 0.649"}
{"sequence": "GCCAAUGAAAAACACCACUTT against Adam12", "z-score": "inactive: -0.765"}
{"sequence": "GGCCAGGUGUUUAAUCUCATT against 9930104L06Rik", "z-score": "inactive: 1.16"}
{"sequence": "GCAAAAAAUCACUUCGAGUTT against Mgat4a", "z-score": "inactive: -0.377"}
{"sequence": "CCCUGACAGAAGUGGUGAATT against Pik3r5", "z-score": "inactive: -0.763"}
{"sequence": "GCUGUUAUCAACUUACUAATT against Rpe", "z-score": "inactive: 0.34"}
{"sequence": "GGACAGCAUGAACUAACCCTT against Ednra", "z-score": "inactive: -0.672"}
{"sequence": "CCACCAGAUACAUAUUUGUTT against Gnpnat1", "z-score": "inactive: -0.352"}
